# Most values lie at the floor of the assay. Slopes are relative: functional sequences can read slightly below zero.
# Tested on: Saccharomyces cerevisiae PS128 hsf1 delta, HSF1(1-493) fusion
# Test: growth estimate (transactivation domain function in HSF1 fusion, heat-shock survival) (a.u. (slope of normalised read count over time)); higher = stronger growth at 37°C, i.e. more transactivation activity
# Conditions: library: random library
row,Substance,growth estimate
1,MGLDAAWGKTQLHISNEFGV,< -0.25
2,MGLLRGE,< -0.25
3,MGMRNAF,< -0.25
4,MGPSRLGWVLWLCITELIEG,< -0.25
5,MGRLTPPGHLSSGL,< -0.25
6,MGRPPTGREP,< -0.25
7,MGSPEEALYKSVRHGGLFLP,< -0.25
8,MGTCHPASLALRFCVYSASM,< -0.25
9,MGTMH,< -0.25
10,MGTVRLSRT,< -0.25
11,MGVRPGHRRRCKNPLG,< -0.25
12,MGY,< -0.25
13,MHATGNAQK,< -0.25
14,MHHSVP,< -0.25
15,MHQVTLTKSHQHDCRYPL,< -0.25
16,MHRIDNETLLVIHTLSRILH,< -0.25
17,MHTGKC,< -0.25
18,MHYGCIVASMR,< -0.25
19,MIAAEAGGHMGETPRRPSHY,< -0.25
20,MIMATK,< -0.25
21,MINSTIRQGLTGRVYTQDRD,< -0.25
22,MINTFVWGSIEGGGVVSKFG,< -0.25
23,MISRQFV,< -0.25
24,MITTA,< -0.25
25,MKASASAGLSSHTVRSNFRG,< -0.25
26,MKGGC,< -0.25

row,Substance,growth estimate
1,MKHPVHETSNN,< -0.25
2,MKLGRDFRTFSIGWYTQATA,< -0.25
3,MKPRHQSAYCF,< -0.25
4,MKPYIDLSMKLREDRVQFAS,< -0.25
5,MKQATAVPRPRAEQCSERLD,< -0.25
6,MKRCKPMTLRGGLTWAKSPP,< -0.25
7,MKRLDEPRAHG,< -0.25
8,MLAD,< -0.25
9,MLAVKALAW,< -0.25
10,MLCVLELKVARK,< -0.25
11,MLIACRTRLSATN,< -0.25
12,MLILITHGFAV,< -0.25
13,MLINWEYVRIMPYGFPLFLD,< -0.25
14,MLKDLAGRGDGVIVYLALST,< -0.25
15,MLKENGHWVQSSAPGTVWNT,< -0.25
16,MLKQGN,< -0.25
17,MLKSMPLHQLNAKQSVTSTV,< -0.25
18,MLLGGCPPQRLTPHVVTPID,< -0.25
19,MLLPHKLRGRTVGRRLAVPP,< -0.25
20,MLPGKCEQQPKSYHPRHCWP,< -0.25
21,MLPSGGFRRMCDRFHGVGRN,< -0.25
22,MLQERRT,-0.246
23,MLRRA,-0.243
24,MLRRGL,< -0.25
25,MLSDQSRPVQHLAGRPLKLH,< -0.25
26,MLSLLRLDDSNSAVLRQRQ,< -0.25

row,Substance,growth estimate
1,MLSRPFLVRTATASVRLSID,< -0.25
2,MLSTIGY,< -0.25
3,MLVHRDYFSTCIGGFIALFC,< -0.25
4,MLY,< -0.25
5,MLYTLSGCSLRGRRRCDRIN,< -0.25
6,MMRYVRPGSPITVRNYRVNY,< -0.25
7,MNAIIQSGVGHERHQQALHM,< -0.25
8,MNANCLV,< -0.25
9,MNLPEQFM,< -0.25
10,MNPID,< -0.25
11,MNQRGDLSSMWSDGEEVRAA,< -0.25
12,MNR,< -0.25
13,MPFTRKTSRVKRSAPDTSLL,< -0.25
14,MPNRYFRHST,< -0.25
15,MPPS,< -0.25
16,MPRSNTAAGKFPTTAQSLME,< -0.25
17,MPSFDDDKIEAICEFD,< -0.25
18,MPVTSPIVFG,< -0.25
19,MQCAESLLGGTKTNGTRSSL,-0.172
20,MQGGR,-0.248
21,MQLWVVLNIRFTFSGR,< -0.25
22,MQSG,< -0.25
23,MQWLRFN,< -0.25
24,MRD,< -0.25
25,MRG,< -0.25
26,MRGGIVRGR,< -0.25

# Rewritten with bars between the fields: entries from further up.
row | Substance | growth estimate
20 | MQGGR | -0.248
21 | MQLWVVLNIRFTFSGR | < -0.25

# Next part.

row,Substance,growth estimate
1,MRKGGAAISVLAVMVPTVTK,< -0.25
2,MRLRTRYHVPWVKQLDKVLR,< -0.25
3,MRQSYLAG,< -0.25
4,MRRDSTKCFRGVGNSTGTGK,< -0.25
5,MRSMVVVESL,< -0.25
6,MSAVGVVTPEVEVVFIRPRS,< -0.25
7,MSCPR,< -0.25
8,MSGENKRVLV,< -0.25
9,MSGLE,< -0.25
10,MSLHGHLPPPVGDIRTPLTL,< -0.25
11,MSLKGSPMKWGVIMHNRIPI,< -0.25
12,MSNGCRLPSIRYVSPTWSTI,< -0.25
13,MSNMSSSLFSQ,< -0.25
14,MSPRRIRGSDL,< -0.25
15,MSPSLSVKKATYTAAYWSIP,< -0.25
16,MSPY,< -0.25
17,MSQLSILSEIPISACQGGWH,< -0.25
18,MSSALARPQPEGLNYGQ,< -0.25
19,MSVETPPAGAPAF,< -0.25
20,MSVNM,< -0.25
21,MTFLQTGLRTGLFTITLWRP,< -0.25
22,MTGMVVRTVYISCSGHHRYS,< -0.25
23,MTIVNDV,< -0.25
24,MTLANKIPMSVIWYATGLL,< -0.25
25,MTLRILRSLRGLRCTGIIIH,< -0.25
26,MTLSTPESRQAPHRTVLSIS,< -0.25

# Single entries from above:
# Entry of MQGGR under growth estimate: -0.248
# Entry of MKRLDEPRAHG under growth estimate: < -0.25
# Entry of MSPSLSVKKATYTAAYWSIP under growth estimate: < -0.25
# Entry of MTGMVVRTVYISCSGHHRYS under growth estimate: < -0.25
# Entry of MQCAESLLGGTKTNGTRSSL under growth estimate: -0.172
# Entry of MNR under growth estimate: < -0.25

# Next part:

row,Substance,growth estimate
1,MTNCRRCAKVGII,< -0.25
2,MTPCLRGKGRVRTMMSGRSM,< -0.25
3,MTSCNTCHMSLSGQPAPSVS,0.241
4,MTVL,< -0.25
5,MTWCLSLCLGWRLTSAVPVV,< -0.25
6,MVANNARGIILVC,< -0.25
7,MVEGRLGQIWLVLCHIVSAM,< -0.25
8,MVH,< -0.25
9,MVLHTHLAEYLTHVYRCLMV,< -0.25
10,MVPANIAFDPITIVHRHRHR,-0.245
11,MVPVDRL,< -0.25
12,MVSSTYISRCTAVHVEIPGY,< -0.25
13,MVSYSVTLTATQDWCSYST,< -0.25
14,MVWDGSLVISGSTALALLES,< -0.25
15,MVWGNVRTSWKQHSLP,< -0.25
16,MVWRIPSACRHYPWGPEVSQ,< -0.25
17,MWLC,< -0.25
18,MWRKILDEERVLPESCSYPG,< -0.25
19,MYCFFEICNLKAVRGDFRVR,< -0.25
20,MYFQAGVCSQGISPDMKTTK,< -0.25
21,MYHGVGSLASLPGVDGGSMT,< -0.25
22,MYRGSDDKGPRELFACQGCD,-0.248
23,NACDWCGSQTAVSVRKHPSE,< -0.25
24,NAEAGLETHGLCVHTNLREA,< -0.25
25,NAGLSLMW,< -0.25
26,NAGSKVCSSQIPWCRPSIAG,< -0.25

row,Substance,growth estimate
1,NALEPRLGPVGCGYNSVGHQ,< -0.25
2,NAQGGVLFGRRAYHFESRRI,< -0.25
3,NARAGSSPVAGRGCSYFVAR,< -0.25
4,NARDSCTSG,< -0.25
5,NARGYYRQENRAGGMTHQPQ,< -0.25
6,NARHKLVSPFGSNIV,< -0.25
7,NART,-0.243
8,NASPCPALSGRLSWHSSTLM,< -0.25
9,NAVMARSELKALKLVSILGS,< -0.25
10,NAVNNPLPFDSDHSVYAGPG,< -0.25
11,NAWVAVLRVLRPA,< -0.25
12,NCALTGRKLRGIRGALRWPV,< -0.25
13,NCC,< -0.25
14,NCEWSRRLC,< -0.25
15,NCILCRLPLR,< -0.25
16,NCLACRTGSCGAGNLLSVFF,< -0.25
17,NCPNANPN,< -0.25
18,NCPPVRMCTAVHK,< -0.25
19,NCPYPPDDLSC,< -0.25
20,NCSTYTRSLGV,< -0.25
21,NDCGGRTRKLRG,-0.245
22,NDFDVPWECDLKSVS,-0.245
23,NDIDKGL,< -0.25
24,NDLMQESTDESEEQ,< -0.25
25,NDLPANRWDIHQISTVCPLG,< -0.25
26,NDLR,< -0.25

row,Substance,growth estimate
1,NDLWFGTHAEAGPIRC,< -0.25
2,NDPREVDWLYMRRIKTDNSR,< -0.25
3,NDRLCRAESPRSEQEFSGKR,< -0.25
4,NDRLDRCVSFTTECPTLILD,< -0.25
5,NDRN,< -0.25
6,NDRRQACYARGALHRISSFS,< -0.25
7,NDSGGKIMVEIIRYSARFEH,< -0.25
8,NDVDYTIIDAACDQAGHSAA,< -0.25
9,NEFGGDMPVSCSTAS,< -0.25
10,NEFLVKPE,< -0.25
11,NEHTLLLTEVTTLPRRGVRG,-0.246
12,NELYVGASPRKRNDKGGEPP,< -0.25
13,NENTRDSGSSPWIIQFS,< -0.25
14,NERQRVSRNPWSKMWPRNGQ,< -0.25
15,NERRIIELRTRSIRAASGSL,< -0.25
16,NESAASRQILS,< -0.25
17,NESGTARD,< -0.25
18,NFAIAHS,< -0.25
19,NFGR,< -0.25
20,NFGTFQL,< -0.25
21,NFQTDWGVKGAI,0.0112
22,NFRRAGDRNTFTRHARALID,< -0.25
23,NFSGPSEVTLSAQGLASKAQ,-0.219
24,NFSIMPREQDPTAAYFRGTR,< -0.25
25,NGASG,< -0.25
26,NGDAR,< -0.25

row,Substance,growth estimate
1,NGDE,< -0.25
2,NGEPLEVTNAPYTWGLSRRV,< -0.25
3,NGEREGMWQRVNNYESKGFD,< -0.253
4,NGESVSDKLKVLRFTGAQQA,< -0.25
5,NGFETK,-0.245
6,NGFPTNSAVAYVIIGYPCPD,< -0.25
7,NGHSHPQLPQSNTPQLTESS,< -0.25
8,NGHTVRLVWGQVRLV,< -0.25
9,NGHYDEPVKVRKFSSGLENQ,< -0.25
10,NGIWGAVRNEVVV,< -0.25
11,NGKFSLPALLGG,< -0.25
12,NGKSLSG,< -0.25
13,NGLWVPRGTTNTPPLAWRLW,< -0.25
14,NGPLIGLGEDLRSPDHSLIE,< -0.25
15,NGPLIRLRRLQNGYSCLVKC,< -0.25
16,NGQGFLEGPHAEDGPVGYVF,< -0.25
17,NGQPGSSPLSR,< -0.25
18,NGQVLRPAPFPKIDET,< -0.25
19,NGRFALKNGKTS,< -0.25

# Source: the supplement of paper PMC5949888
